PubChem BioAssay AID1259405 | NCATS – 2018
Here is a random part of about 50,000 reagents tested. About 4,000 of them (8%) count as active. 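Mouse siRNA library applied to hamster cells; one well for each siRNA.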 The numbers tell different reagents against one gene apart.

- Purpose: 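Silenced genes that increase secreted GFP made by CHO cells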 (primary screen)
- Cells: Chinese hamster CHO-K1 ovary cells with stable secreted eGFP expression
- Reagents: single siRNA against mouse genes, 0.8 pmol siRNA per well (2 µl of 400 nM stock)
- Timing: 3 days
- Measured: 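Per-well intracellular GFP measured by laser scanning cytometry, plus viability from ATP luminescence, each relative to plate median of non-targeting control wells, in %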
- Direction: GFP, % of control: higher = more GFP per well, higher productivity; viability (ATP), % of control: higher = more viable cells (more ATP)
- Rule for the call: 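a knock-down is called active if GFP reaches 120% or more of non-targeting control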

Gene | siRNA no. | GFP, % of control | viability (ATP), % of control | call
Slc44a3 | 1 | 91.3 | 43.9 | inactive
Slc44a3 | 2 | 158 | 80 | active
Slc44a3 | 3 | 69.8 | 43.2 | inactive
Snx2 (sorting nexin 2) | 1 | 84.1 | 105 | inactive
Snx2 (sorting nexin 2) | 2 | 86.7 | 71.1 | inactive
Vxn (vexin) | 1 | 143 | 97 | active
Vxn (vexin) | 2 | 53.7 | 67.3 | inactive
Vxn (vexin) | 3 | 80.5 | 58.5 | inactive
Cdh15 (cadherin 15) | 1 | 78.3 | 77.1 | inactive
Cdh15 (cadherin 15) | 2 | 80.6 | 75.6 | inactive
Cdh15 (cadherin 15) | 3 | 79.4 | 70.8 | inactive
Cdkl1 (cyclin dependent kinase like 1) | 1 | 65.9 | 69.3 | inactive
Or10a3n (olfactory receptor family 10 subfamily A member 3N) | 1 | 53.1 | 62.3 | inactive
Or10a3n (olfactory receptor family 10 subfamily A member 3N) | 2 | 72.6 | 104 | inactive
Or10a3n (olfactory receptor family 10 subfamily A member 3N) | 3 | 8.25 | 12.3 | inactive
Zfp759 (zinc finger protein 759) | 1 | 68.9 | 83.9 | inactive
Zfp759 (zinc finger protein 759) | 2 | 43.4 | 64.2 | inactive
Zfp759 (zinc finger protein 759) | 3 | 106 | 88 | inactive
Itih3 (inter-alpha trypsin inhibitor, heavy chain 3) | 1 | 108 | 101 | inactive
Itih3 (inter-alpha trypsin inhibitor, heavy chain 3) | 2 | 88.7 | 86.3 | inactive
Itih3 (inter-alpha trypsin inhibitor, heavy chain 3) | 3 | 75.8 | 72 | inactive
Eif4b (eukaryotic translation initiation factor 4B) | 1 | 65.8 | 95 | inactive
Eif4b (eukaryotic translation initiation factor 4B) | 2 | 65.7 | 43.4 | inactive
Eif4b (eukaryotic translation initiation factor 4B) | 3 | 126 | 90.9 | active
Card11 (caspase recruitment domain family, member 11) | 1 | 65.6 | 124 | inactive
Card11 (caspase recruitment domain family, member 11) | 2 | 136 | 120 | active
Timm9 (translocase of inner mitochondrial membrane 9) | 1 | 135 | 122 | active
Timm9 (translocase of inner mitochondrial membrane 9) | 2 | 130 | 133 | active
Timm9 (translocase of inner mitochondrial membrane 9) | 3 | 146 | 82.2 | active
Gm5414 (predicted gene 5414) | 1 | 68.9 | 49.5 | inactive
Gm5414 (predicted gene 5414) | 2 | 63 | 67.9 | inactive
Gm5414 (predicted gene 5414) | 3 | 122 | 94.1 | active
C130046B21Rik (RIKEN cDNA C130046B21 gene) | 1 | 33.9 | 37.2 | inactive
C130046B21Rik (RIKEN cDNA C130046B21 gene) | 2 | 60.4 | 77.1 | inactive
C130046B21Rik (RIKEN cDNA C130046B21 gene) | 3 | 88.1 | 93 | inactive
Htr6 (5-hydroxytryptamine (serotonin) receptor 6) | 1 | 99.3 | 54.3 | inactive
Htr6 (5-hydroxytryptamine (serotonin) receptor 6) | 2 | 52.3 | 51.4 | inactive
Htr6 (5-hydroxytryptamine (serotonin) receptor 6) | 3 | 71.4 | 60.1 | inactive
Prpf40a (pre-mRNA processing factor 40A) | 1 | 63.2 | 80.9 | inactive
Prpf40a (pre-mRNA processing factor 40A) | 2 | 63.6 | 79.1 | inactive
Prpf40a (pre-mRNA processing factor 40A) | 3 | 118 | 61.3 | inactive
Egln3 (egl-9 family hypoxia-inducible factor 3) | 1 | 79.1 | 91.8 | inactive
Egln3 (egl-9 family hypoxia-inducible factor 3) | 2 | 84.6 | 80.7 | inactive
Egln3 (egl-9 family hypoxia-inducible factor 3) | 3 | 58.6 | 57.8 | inactive
Spata19 (spermatogenesis associated 19) | 1 | 95.9 | 104 | inactive
Spata19 (spermatogenesis associated 19) | 2 | 85.9 | 70.9 | inactive
Spata19 (spermatogenesis associated 19) | 3 | 108 | 89.8 | inactive
Triobp (TRIO and F-actin binding protein) | 1 | 130 | 77.5 | active
Triobp (TRIO and F-actin binding protein) | 2 | 106 | 66 | inactive
Triobp (TRIO and F-actin binding protein) | 3 | 99.9 | 73.1 | inactive
Or10g3 (olfactory receptor family 10 subfamily G member 3) | 1 | 36.8 | 17.5 | inactive
Or10g3 (olfactory receptor family 10 subfamily G member 3) | 2 | 83.5 | 93.8 | inactive
Or10g3 (olfactory receptor family 10 subfamily G member 3) | 3 | 19.7 | 39.2 | inactive
Clcnkb (chloride channel, voltage-sensitive Kb) | 1 | 87.7 | 91.4 | inactive
Clcnkb (chloride channel, voltage-sensitive Kb) | 2 | 62.4 | 61.2 | inactive
Clcnkb (chloride channel, voltage-sensitive Kb) | 3 | 117 | 70.8 | inactive
Rab25 (RAB25, member RAS oncogene family) | 1 | 109 | 107 | inactive
Rab25 (RAB25, member RAS oncogene family) | 2 | 102 | 102 | inactive
Rab25 (RAB25, member RAS oncogene family) | 3 | 54.9 | 84.5 | inactive

5 entries from above, showing only “GFP, % of control”:
Snx2 (sorting nexin 2) #2 = 86.7
Vxn (vexin) #1 = 143
Vxn (vexin) #2 = 53.7
Vxn (vexin) #3 = 80.5
Cdh15 (cadherin 15) #1 = 78.3
